Experiments:
[1] = general procedure: Fmoc solid-phase peptide synthesis; Sieber Amide resin; Rink Amide resin; diisopropylcarbodiimide then HBTU (double coupling); BOP/HBTU; conditions: for difficulty met: purification step; for final HPLC purity: whole synthesis
[2] = general procedure: Fmoc solid-phase peptide synthesis; Rink Amide resin; diisopropylcarbodiimide then HBTU (double coupling); BOP/HBTU; conditions: whole synthesis, scale 1.0 g, 0.6 mmol/g

| Substance | difficulty met [1] | final HPLC purity [1] | isolated mass [2] [mg] |
| --- | --- | --- | --- |
| DOTA-D-Ala-D-Lys(HSG)-D-Glu-D-Lys(HSG)-NH2 | due to impurities discovered after the initial purification, was repurified twice more | ˜97% | – |
| DOTA-D-Phe-D-Lys(HSG)-D-Tyr-D-Lys(HSG)-NH2 | due to impurities discovered after the initial purification, was repurified twice more | ˜97% | 248.1 |

Source: US7172751B2 (Immunomedics, Inc., priority 2003, dated 2007)
